Our source for the cell number change and AC50 values is PubChem BioAssay AID2685 (National Center for Advancing Translational Sciences (NCATS), 2010).

A short description of the assay: qHTS Assay for Lipid Storage Modulators in Drosophila S3 Cells.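 On cell number change: cells counted by Cell Tracker Red CMTPX staining in the red channel.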 The settings on record: BODIPY lipid droplet fluorescence, 18-24 h; for cell number change: measured here: cell count max response, cells fed with added oleic acid. The method in brief:
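Laser-scanning cytometry quantifies lipid droplet accumulation (500–530 nm total intensity; droplet/cell object ratio) in oleic acid-fed (400 uM added) Drosophila S3 cells treated with a concentration series. 20 uM Triacsin C defined 100% inhibition.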

Setting [1] is: measured here: cell number channel AC50, cells fed with added oleic acid.
Where [2] appears, read: measured here: lipid fluorescence (Fed channel) AC50, cells fed with added oleic acid.

Some of the results follow. The main result of the screen is listed elsewhere. These columns were measured beside it and carry no call. Most of these compounds were active or inconclusive in the main read-out, so they are no random draw. Words in brackets tell the shape of the fitted curve; partial curves, single points and poor fits give uncertain potencies.

`CCCNC(=O)c1ccc(N2CCC3(CC2)CC(c2cccc(Br)c2)=NO3)c(NC(=O)c2ccccc2)c1`: the cell number change turned out to be 9.77%. The concentration at half-maximal activity (AC50) under setting [1] was 103 nM [falling, full curve, poor fit].

Take `CN(C)CCN(C(=O)CCS(=O)(=O)c1ccccc1)c1nc2c(F)cccc2s1`: the cell number change turned out to be 31.6%. Further, under setting [1], the concentration at half-maximal activity (AC50) is 7310 nM [rising, partial curve, poor fit]. The AC50 under setting [2] was 7310 nM [rising, partial curve].

As for `CCCN1CCN(C(=O)C2CCN(S(=O)(=O)c3ccc4c(c3)oc(=O)n4C)CC2)CC1`, the AC50 under setting [2] was 6510 nM [rising, single point].

Turning to `O=C(CCN1C(=O)c2ccncc2C1=O)Nc1ccc(F)cc1`, the cell number change was -45.2%. Moreover, under setting [1], the AC50 is 9.2 nM [falling, full curve]. The AC50 under setting [2] is 18400 nM [falling, partial curve, poor fit].

In the case of `OC(C#CCN1CCCCCC1)(c1ccccc1)c1cccnc1` (centres undefined), the cell number change was found to be 25.4%. The half-maximal activity concentration (AC50) under setting [2] was 820 nM [rising, full curve, poor fit].

As to `Cc1ccc(NC(=O)CN2C(=O)NC3(CCc4ccccc43)C2=O)cc1` (centres undefined), the AC50 is 5800 nM [rising, single point] under setting [1] and 580 nM [rising, single point] under setting [2].

Take `CCCOc1ccc(N/C=C/C(=O)c2ccc(OC)c(OC)c2)cc1`: the cell number change was -10.9%. The AC50 under setting [2] is 517 nM [rising, partial curve, poor fit].

Regarding `Oc1ccc(-c2nc3ccccn3c2NCc2ccc3c(c2)OCO3)cc1`, the cell number change is -26%. Further, the AC50 under setting [2] is 920 nM [rising, full curve].

As for `O=C1CC(c2ccccc2F)c2c(c3ccccc3[nH]c2=O)O1` (centres undefined), the cell number change was -23.9%. The AC50 under setting [2] is 29100 nM [falling, single point].

With `COc1ccc(NC(C)=O)cc1NC(C)c1nc2sc(C)c(C)c2c(=O)[nH]1` (centres undefined), the cell number change is -42.3%. Also, the AC50 under setting [1] was 8200 nM [falling, single point]. Besides, the AC50 under setting [2] was 1840 nM [falling, partial curve].

For the compound `CC(C)(C)c1ccc(S(=O)(=O)NCC(=O)N2CCN(Cc3ccccc3)CC2)cc1`, the cell number change is -37.6%. Moreover, the AC50 under setting [1] is 14600 nM [falling, single point].

In the case of `CNS(=O)(=O)c1ccc(NC(=O)c2csc(C)c2)cc1`, the cell number change is -18.9%.

As to `COc1cc(NC(=S)NCCc2ccccc2)c(OC)cc1NC(=O)C(C)C`, the cell number change came to 15.7%. In addition, the AC50 under setting [2] is 259 nM [rising, full curve, poor fit].

In the case of `S=C(NC1CC2CCC1C2)N1CCN(c2cccc(Cl)c2)CC1` (centres undefined), the cell number change turned out to be 9.02%.

With `CCOc1ccc(N2C(=O)Nc3ccccc3C2(O)C(=O)NCc2ccc(F)cc2)cc1` (centres undefined), the cell number change is -10.5%.

Turning to `Cc1ccc(OC(C)C(=O)Nc2cc(C)on2)cc1` (centres undefined), the cell number change stood at 26.5%. In addition, the AC50 under setting [2] is 4610 nM [falling, single point].

`Cc1cc(OCCCC(=O)Nc2nnc(C3CC3)s2)ccc1Cl`: the cell number change was -30.6%. The AC50 under setting [1] was 16400 nM [falling, single point]. Under setting [2], the concentration at half-maximal activity (AC50) is 146 nM [rising, full curve, poor fit].

In the case of `COc1ccc(N(CC(=O)N2CCCCCC2)S(=O)(=O)c2c(C)[nH]c(=O)[nH]c2=O)cc1`, the cell number change is -22.9%. The AC50 under setting [1] was 231 nM [falling, full curve, poor fit]. In addition, under setting [2], the AC50 is 11600 nM [falling, partial curve].

As to `O=C(Cc1ccc(S(=O)(=O)N2CCCCC2)s1)Nc1ccc(F)c(F)c1`, the AC50 runs as follows: under setting [1], 116 nM [falling, full curve, poor fit]; under setting [2], 25900 nM [falling, partial curve].

Regarding `Cc1ccc(/C=C/C(=O)OCC(=O)NC(C)c2ccccc2)o1` (centres undefined), the cell number change is -33.5%. Also, under setting [1], the AC50 is 259 nM [falling, full curve, poor fit].

`CC(=O)Nc1ccc(NC(=O)CSc2ncc(C(=O)Nc3ccc(F)cc3)c(=O)n2C)cc1`: the cell number change was 51%. The AC50 under setting [1] was 2910 nM [rising, full curve].

In the case of `COc1ccc(Br)cc1CNC(=O)C1CCCN(c2nc3ccccc3o2)C1` (centres undefined), the cell number change was -7.55%.

In the case of `COc1ccccc1N1CCN(C(=O)CCNC(=O)Cn2ccc3ccccc3c2=O)CC1`, the cell number change was -8.57%.

Take `COc1cccc(/C=N/NC(=O)C(=O)N2CCCC2)c1O`: the AC50 was 651 nM [rising, partial curve, poor fit] under setting [1] and 580 nM [rising, partial curve, poor fit] under setting [2].

Regarding `CCOC(=O)C1=C(CC)Nc2ccccc2N/C1=N\S(=O)(=O)c1ccccc1OC`, the cell number change was found to be 22.7%. Moreover, the AC50 under setting [2] is 411 nM [rising, full curve, poor fit].

As to `CCC(C)(c1ccc(C(=O)OC)s1)c1ccc(C(=O)OC)s1`, the AC50 under setting [2] is 29100 nM [falling, single point].

For `COc1cccc(C(=O)Nc2ccc(NC(C)=O)cc2)c1`, the cell number change worked out at 9.04%.

Consider `CSCC[C@H](NC(=O)c1ccc2ccccc2c1)C(=O)N1CCC2(CC1)NCCc1[nH]cnc12`, for which the AC50 under setting [2] was 146 nM [rising, full curve].

With `COc1ccc(C2CC2C(=O)c2ccccn2)cc1` (centres undefined), the cell number change is 46.2%. Under setting [1], the AC50 was 29100 nM [rising, single point]. Also, the AC50 under setting [2] was 29100 nM [rising, single point].

Regarding `CC1(CCc2ccccc2)NC(=O)N(CC(=O)Nc2ccc3c(c2)OCCO3)C1=O` (centres undefined), the cell number change came out at 23.9%. Also, under setting [2], the AC50 was 4.61 nM [falling, full curve, poor fit].

Take `Cc1ccc(NC(=O)C(C)OC(=O)Cc2c[nH]c3ccccc23)cc1S(=O)(=O)N1CCOCC1` (centres undefined): under setting [1], the AC50 is 2910 nM [rising, single point].

Turning to `O=[N+]([O-])c1ccccc1S(=O)(=O)Oc1ccc(/C=N/n2cnnc2)cc1`, the cell number change is -7.98%.

In the case of `C[C@@H]1CC=C[C@H]2[C@H]1C(=O)N(Cc1ccccc1)[C@H]2c1ccc2ccccc2c1`, the cell number change is -52.5%. Moreover, the AC50 under setting [1] was 20600 nM [falling, single point]. The AC50 under setting [2] was 3660 nM [falling, single point].

With `CCN(CC)C1CCN(C(=O)c2cc(COc3ccc(-n4cncn4)cc3)on2)C1` (centres undefined), the cell number change turned out to be 31.5%. Also, the AC50 under setting [1] is 8200 nM [rising, partial curve].

Regarding `O=C(Nc1ccc(S(=O)(=O)N2CCCC2)cc1Cl)C1=COCCO1`, the cell number change turned out to be 20%. For the same compound, the AC50 under setting [2] is 231 nM [rising, full curve].

For `O=C(N[C@H](Cc1cc(=O)[nH]c2ccccc12)C(=O)O)c1ccc(Cl)cc1`, the cell number change came to 24.4%.

On to `O=C(C1=C(O)C(=O)N(Cc2ccco2)C1c1cccnc1)c1cc2ccccc2o1` (centres undefined), for which the cell number change is -15.3%. Under setting [2], the AC50 is 5.8 nM [rising, full curve].

Broadly, the AC50 is the concentration giving half of the maximal activity seen. A high value points to weaker potency.
